Measured data: PubChem BioAssay AID1259308 (NCATS, 2017)
The deposit covers about 59,000 reagents; this is a random part of them. About 1,510 of all reagents (2.6%) count as active. 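Calls use total luciferase alone and ignore viability, so some active siRNAs may act by altering cell number.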 Reagents against one gene are numbered here. Further read-outs or replicates are left out here. No sequences are given here.

Aim: 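Genes whose loss raises luciferase production in HEK293 cells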 (primary screen)
Cell system: human HEK293 embryonic kidney cells stably expressing firefly luciferase (HEK-CMV-Luc2-Hygro)
Reagent: single siRNA against human genes, 0.8 pmol siRNA per well
Timing: 72 h
Measured: 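Reporter luminescence and viable-cell signal on separate replicate plates, given as percent of non-targeting control and median/MAD z-scores, plus per-cell luciferase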
Scale: total luciferase, z-score: higher = more reporter protein produced
Active means: 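Active when the median/MAD z-score for overall luciferase is greater than 3; a gene was taken forward for validation with new siRNAs if at least two of its three siRNAs passed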
Calls: active = raised luciferase; inactive = no rise

| Gene | siRNA no. | total luciferase, z-score | outcome |
| --- | --- | --- | --- |
| SLC1A5 | 1 | -1.53 | inactive |
| SLC1A5 | 2 | -0.676 | inactive |
| SLC1A5 | 3 | 0.677 | inactive |
| ANKRD7 | 1 | 0.11 | inactive |
| ANKRD7 | 2 | 0.89 | inactive |
| ANKRD7 | 3 | 0.785 | inactive |
| NBPF7P | 1 | 3.46 | active |
| NBPF7P | 2 | -0.783 | inactive |
| NBPF7P | 3 | 0.17 | inactive |
| HEATR9 | 1 | 0.349 | inactive |
| HEATR9 | 2 | -0.474 | inactive |
| HEATR9 | 3 | 0.19 | inactive |
| SLC29A2 | 1 | 0.148 | inactive |
| SLC29A2 | 2 | 0.603 | inactive |
| SLC29A2 | 3 | 1.69 | inactive |
| PRPF8 | 1 | 2.27 | inactive |
| PRPF8 | 2 | 1.47 | inactive |
| PRPF8 | 3 | 1.96 | inactive |
| SLC5A12 | 1 | 1.23 | inactive |
| SLC5A12 | 2 | -1.3 | inactive |
| SLC5A12 | 3 | -1.32 | inactive |

Already shown: 6 of the entries above.
| Gene | siRNA no. | total luciferase, z-score | outcome |
| --- | --- | --- | --- |
| SLC1A5 | 2 | -0.676 | inactive |
| SLC1A5 | 3 | 0.677 | inactive |
| ANKRD7 | 1 | 0.11 | inactive |
| ANKRD7 | 2 | 0.89 | inactive |
| ANKRD7 | 3 | 0.785 | inactive |
| NBPF7P | 1 | 3.46 | active |

Further results follow:
| Gene | siRNA no. | total luciferase, z-score | outcome |
| --- | --- | --- | --- |
| OR8J3 | 1 | 0.522 | inactive |
| OR8J3 | 2 | -1.25 | inactive |
| OR8J3 | 3 | 1.17 | inactive |
| MMP26 | 1 | -0.381 | inactive |
| MMP26 | 2 | -0.000869 | inactive |
| MMP26 | 3 | 0.833 | inactive |
| KRT42P | 1 | 1.08 | inactive |
| KRT42P | 2 | 0.0936 | inactive |
| KRT42P | 3 | -1.91 | inactive |
| MBNL1-AS1 | 1 | -1.14 | inactive |
| MBNL1-AS1 | 2 | -2.01 | inactive |
| MBNL1-AS1 | 3 | 0.523 | inactive |
| CYP27B1 | 1 | -1.22 | inactive |
| CYP27B1 | 2 | -0.46 | inactive |
| CYP27B1 | 3 | -1.3 | inactive |
| VSTM2L | 1 | 1.08 | inactive |
| VSTM2L | 2 | 0.406 | inactive |
| VSTM2L | 3 | -1.01 | inactive |
| GJA8 | 1 | -0.83 | inactive |
| GJA8 | 2 | 0.616 | inactive |
| GJA8 | 3 | 1.9 | inactive |
| PAOX | 1 | -0.733 | inactive |
| PAOX | 2 | 1.43 | inactive |
| PAOX | 3 | -0.0298 | inactive |
| CBARP | 1 | 0.79 | inactive |
| CBARP | 2 | 0.262 | inactive |
| CBARP | 3 | 0.169 | inactive |
| OR2A1 | 1 | -0.502 | inactive |
| OR2A1 | 2 | -2.55 | inactive |
| OR2A1 | 3 | 0.123 | inactive |
| TCF3 | 1 | -2.92 | inactive |
| TCF3 | 2 | 2.67 | inactive |
| TCF3 | 3 | -0.418 | inactive |
| GIMAP4 | 1 | 2.78 | inactive |
| GIMAP4 | 2 | -1.04 | inactive |
| GIMAP4 | 3 | -0.404 | inactive |
